The shares of active, inactive and inconclusive entries below differ from those in the screen. For some of these results: Where the call is inconclusive, the potency comes from a doubtful curve fit. Calls of active or inactive are those of the source. The call rests on the fitted dose curve; in most records, active means well fitted curve in the direction sought with a large enough effect; inconclusive means small, poorly fitted or top-dose-only effect, or another doubt; inactive means no such curve, though single readings can be large; an effect the other way counts as inactive or inconclusive.
Key:
[1] = Quantitative highthroughput screen to assess conditional lethalithy of NOMO1 cells grown in RPMI1640 with untreated serum (RPMI+s) (AID 1963876); conditions: NOMO1 AML cells in RPMI+serum, CellTiter-Glo viability, 48 h; viability: at 45.8 µM (top of the series); further: nearly all actives have a fitted effect of over 35% in size;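 on viability: 100% = DMSO wells and 0% = empty wells without cells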
How it was run: (§1)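 Each medium arm—HPLM with 10% dialyzed FBS, or RPMI1640 with 5 mM glucose and 10% untreated or dialyzed FBS—was screened against an 11-point, 3-fold compound titration for 48 h at 37 °C, with CellTiter-Glo luminescence as endpoint.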

[2] = Quantitative highthroughput screen to assess conditional lethalithy of P12 Ichikawa cells grown in Human Plasma-Like Medium with dialyzed fetal bovine serum (HPLM+ds) (AID 1963879); conditions: Potency: viability; further: nearly all actives have a fitted effect of over 35% in size
How it was run: as §1

[3] = Quantitative highthroughput screen to assess conditional lethalithy of SEM cells grown in RPMI1640 with unreated serum (RPMI+s) (AID 1963883); conditions: SEM B-ALL cells, CellTiter-Glo viability, 48 h; viability: at 45.8 µM (top of the series); further: nearly all actives have a fitted effect of over 35% in size;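 on viability: 100% = DMSO wells and 0% = empty wells without cells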
How it was run: as §1

[4] = Quantitative highthroughput screen to assess conditional lethalithy of NOMO1 cells grown in RPMI1640 with dialyzed fetal bovine serum (RPMI+ds) (AID 1963877); further: nearly all actives have a fitted effect of over 30% in size;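 on viability: 100% = DMSO control wells and 0% = empty wells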
How it was run: as §1

[5] = Quantitative highthroughput screen to assess conditional lethalithy of NOMO1 cells grown in Human Plasma-Like Medium with dialyzed fetal bovine serum (HPLM+ds) (AID 1963878); conditions: NOMO1 AML cells in HPLM+ds, CellTiter-Glo viability, 48 h; viability: at 45.8 µM (top of the series); further: nearly all actives have a fitted effect of over 35% in size;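 on viability: 100% = DMSO wells and 0% = empty wells on each plate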
How it was run: as §1

[6] = Quantitative highthroughput screen to assess conditional lethalithy of P12 Ichikawa cells grown in RPMI1640 with dialyzed fetal bovine serum (RPMI+ds) (AID 1963880); conditions: Potency: P12-Ichikawa viability; further: nearly all actives have a fitted effect of over 35% in size
How it was run: as §1

[7] = Quantitative highthroughput screen to assess conditional lethalithy of P12 Ichikawa cells grown in RPMI1640 with untreated serum (RPMI+s) (AID 1963881); conditions: Potency: viability; further: nearly all actives have a fitted effect of over 35% in size;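 on viability: 100% = DMSO wells and 0% = empty wells without cells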
How it was run: as §1

[8] = Quantitative highthroughput screen to assess conditional lethalithy of SEM cells grown in Human Plasma-Like Medium with dialyzed fetal bovine serum (HPLM+ds) (AID 1963882); further: nearly all actives have a fitted effect of over 35% in size
How it was run: as §1

[9] = Quantitative highthroughput screen to assess conditional lethalithy of SEM cells grown in RPMI1640 with dialyzed fetal bovine serum (RPMI+ds) (AID 1963884); conditions: SEM B-ALL cells, RPMI+dialyzed FBS, CellTiter-Glo viability, 48 h; viability: at 45.8 µM (top of the series); further: nearly all actives have a fitted effect of over 35% in size;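 on viability: 100% = DMSO control wells and 0% = empty wells without cells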
How it was run: as §1

[10] = Cellular viability qHTS for adrenocortical cancer (ACC) cell line NCI-H295R (AID 1963990); conditions: CellTiter-Glo ATP luminescence, 48 h; activity change, negative = viability loss: at 46.1 µM (top of the series); further: nearly all actives have a fitted effect of over 60% in size
How it was run: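 Compound titrations (up to 46 uM final) are applied to NCI-H295R cultures for 48 h at 37C. Viable cell number is estimated by CellTiter-Glo signal, normalised to DMSO and doxorubicin controls.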

[11] = Cellular viability qHTS for adrenocortical cancer (ACC) cell line SW-13 (AID 1963989); conditions: SW-13 ACC cells viability, CellTiter-Glo, 48 h; activity (max response): stronger effect = lower value; further: nearly all actives have a fitted effect of over 65% in size;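 on activity (max response): cells grown in serum-free medium with ITS supplement; on the % scale 0 is the no-effect control and ±100 the full control effect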
How it was run: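 48 h treatment, SW-13 in ITS/DMEM serum-free; doses up to 46 uM; readout CellTiter-Glo luminescence; curve fit four-parameter logistic.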
Potency means the concentration at half of the fitted maximal effect.

Cn1cc(C=CC(=O)c2cccc(F)c2)cc1C=CC(=O)NO
inactive: Potency [1] | Potency [2] | Potency [3]

CC(=NNC(=S)N1CCC1)c1ccccn1
active: Potency [4] 0.0053 µM | Potency [5] 0.0047 µM | Potency [2] 0.0053 µM | Potency [6] 0.0066 µM | Potency [7] 0.0059 µM

C[C@@H](N)C1CCC(C(=O)Nc2ccncc2)CC1 (some centres undefined)
inactive: Potency [4] | Potency [5] | Potency [2]

COc1cccc2c1CCCC2CCCN1CCN(C2CCCCC2)CC1 (centres undefined)
inconclusive: Potency [4] 20.9 µM [cytotoxic, single point] | Potency [5] 26.4 µM [cytotoxic, single point] | Potency [2] 23.5 µM [cytotoxic, partial curve, poor fit] | Potency [7] 26.4 µM [cytotoxic, partial curve] | Potency [8] 20.9 µM [cytotoxic, partial curve] | Potency [3] 18.7 µM [cytotoxic, partial curve] | Potency [9] 20.9 µM [cytotoxic, partial curve] | Potency [10] 35.5 µM [cytotoxic, single point]

CC(C)OC(=O)CCCC=CC[C@@H]1[C@H](C=C[C@@H](O)COc2cccc(C(F)(F)F)c2)[C@H](O)C[C@@H]1O
inconclusive: Potency [4] 29.6 µM [cytotoxic, single point] | Potency [5] 20.9 µM [cytotoxic, partial curve] | Potency [2] 23.5 µM [cytotoxic, single point] | Potency [6] 20.9 µM [cytotoxic, partial curve] | Potency [7] 20.9 µM [cytotoxic, partial curve] | Potency [8] 29.6 µM [cytotoxic, single point] | Potency [3] 26.4 µM [cytotoxic, single point]

Cc1ccccc1C(C(=O)NC1CCCC1)N(C(=O)Cn1cnc2ccccc21)c1cccc(F)c1 (centres undefined)
inconclusive: Potency [3] 26.4 µM [cytotoxic, partial curve, poor fit]
inactive: Potency [1] | Potency [8] | Potency [9]

CCC(=C(c1ccccc1)c1ccc(OCCN(C)C)cc1)c1ccccc1
inconclusive: Potency [4] 18.7 µM [cytotoxic, partial curve] | Potency [5] 20.9 µM [cytotoxic, partial curve] | Potency [6] 20.9 µM [cytotoxic, partial curve, poor fit] | Potency [9] 29.6 µM [cytotoxic, single point]
inactive: Potency [2]

CC(C)C(=O)Nc1ncc(-c2cc(C(F)F)nn2-c2c(Cl)cccc2Cl)s1
inconclusive: Potency [4] 20.9 µM [cytotoxic, partial curve] | Potency [5] 33.2 µM [cytotoxic, single point] | Potency [2] 37.2 µM [cytotoxic, single point] | Potency [6] 37.2 µM [cytotoxic, single point] | Potency [7] 29.6 µM [cytotoxic, single point] | Potency [8] 20.9 µM [cytotoxic, partial curve] | Potency [3] 20.9 µM [cytotoxic, partial curve, poor fit] | Potency [9] 26.4 µM [cytotoxic, single point] | Potency [11] 25.1 µM [cytotoxic, single point]

CCOc1ccc(Nc2nc(-c3c(C)nc4ccccn34)cs2)cc1
active: Potency [2] 0.0469 µM | Potency [3] 0.0469 µM | Potency [10] 0.708 µM
inconclusive: Potency [4] 0.0935 µM [cytotoxic, full curve] | Potency [5] 0.0296 µM [cytotoxic, full curve] | Potency [6] 0.0833 µM [cytotoxic, full curve] | Potency [8] 0.0372 µM [cytotoxic, full curve] | Potency [11] 0.141 µM [cytotoxic, full curve]

CC(C=CC(=O)NO)=C[C@@H](C)C(=O)c1ccc(N(C)C)cc1
active: Potency [4] 1.87 µM | Potency [5] 1.66 µM | Potency [2] 1.48 µM | Potency [6] 1.18 µM | Potency [7] 1.18 µM

CCC(C=C[C@@H]1OC(=O)C=C[C@H]1C)=C[C@H](C)CC=CC(C)=C[C@@H](C)C(=O)[C@@H](C)[C@H](O)[C@@H](C)CC(C)=CC(=O)O
active: Potency [1] 0.11 µM | Potency [7] 0.0877 µM | Potency [9] 0.022 µM

Cn1cc(-c2cnn3c(N)c(Br)c([C@H]4CCCNC4)nc23)cn1
inconclusive: Potency [4] 1.05 µM [cytotoxic, full curve]
active: Potency [5] 1.32 µM | Potency [2] 2.96 µM | Potency [7] 2.64 µM | Potency [9] 1.05 µM

Cc1ccc([C@@H]2O[C@H](CO)[C@@H](O)[C@H](O)[C@@H]2O)cc1Cc1ccc(-c2ccc(F)cc2)s1
inconclusive: Potency [5] 20.9 µM [cytotoxic, single point] | Potency [2] 37.2 µM [cytotoxic, partial curve, poor fit] | Potency [7] 29.6 µM [cytotoxic, single point] | Potency [3] 33.2 µM [cytotoxic, single point] | Potency [9] 37.2 µM [cytotoxic, single point]
inactive: Potency [4]

CN1CCN(c2ncc(-c3cc(Cl)cc(Cl)c3Cl)c(N)n2)CC1
inconclusive: Potency [4] 0.743 µM [cytotoxic, full curve] | Potency [5] 0.469 µM [cytotoxic, full curve] | Potency [7] 2.35 µM [cytotoxic, full curve] | Potency [11] 28.2 µM [cytotoxic, single point]
inactive: Potency [8]
active: Potency [2] 2.64 µM | Potency [10] 22.4 µM

Two records picked at random from the list so far:
CN1CCN(c2ncc(-c3cc(Cl)cc(Cl)c3Cl)c(N)n2)CC1
inconclusive: Potency [4] 0.743 µM [cytotoxic, full curve] | Potency [5] 0.469 µM [cytotoxic, full curve] | Potency [7] 2.35 µM [cytotoxic, full curve] | Potency [11] 28.2 µM [cytotoxic, single point]
inactive: Potency [8]
active: Potency [2] 2.64 µM | Potency [10] 22.4 µM

CCC(C=C[C@@H]1OC(=O)C=C[C@H]1C)=C[C@H](C)CC=CC(C)=C[C@@H](C)C(=O)[C@@H](C)[C@H](O)[C@@H](C)CC(C)=CC(=O)O
active: Potency [1] 0.11 µM | Potency [7] 0.0877 µM | Potency [9] 0.022 µM

The list goes on:

CC=CC[C@@H](C)C(=O)[C@H]1C(=O)N[C@@H](C(C)C)C(=O)N(C)CC(=O)N(C)[C@@H](CC(C)C)C(=O)N[C@@H](C(C)C)C(=O)N(C)[C@@H](CC(C)C)C(=O)N[C@@H](C)C(=O)N[C@H](C)C(=O)N(C)[C@@H](CC(C)C)C(=O)N(C)[C@@H](CC(C)C)C(=O)N(C)[C@@H](C(C)C)C(=O)N1C
active: Potency [3] 14.8 µM
inconclusive: Potency [4] 33.2 µM [cytotoxic, single point] | Potency [5] 18.7 µM [cytotoxic, partial curve] | Potency [2] 14.8 µM [cytotoxic, partial curve] | Potency [6] 14.8 µM [cytotoxic, partial curve] | Potency [7] 14.8 µM [cytotoxic, partial curve] | Potency [8] 18.7 µM [cytotoxic, partial curve] | Potency [9] 16.6 µM [cytotoxic, partial curve]

O=c1[nH]nc(OCCCc2ccc(Cl)cc2)c(NCc2cccnc2)c1Br
inconclusive: Potency [7] 14.8 µM [cytotoxic, partial curve] | Potency [10] 12.6 µM [cytotoxic, partial curve]
active: Potency [4] 5.9 µM | Potency [5] 2.96 µM | Potency [2] 5.9 µM | Potency [6] 5.26 µM

Cc1c(-c2cccc3c(CCCOc4cccc5ccccc45)c(C(=O)O)n(Cc4cccnc4)c23)c(COc2ccc(N3CCN([S+](=O)([O-])N(C)C)CC3)cc2)nn1C
inactive: Potency [1] | Potency [7]
inconclusive: Potency [8] 33.2 µM [cytotoxic, single point] | Potency [3] 23.5 µM [cytotoxic, single point] | Potency [9] 20.9 µM [cytotoxic, partial curve, poor fit]

COc1cc2nc(N3CCCN(C)CC3)nc(NC3CCN(Cc4ccccc4)CC3)c2cc1OC
inconclusive: Potency [9] 10.5 µM [cytotoxic, partial curve]
active: Potency [1] 8.33 µM | Potency [6] 11.8 µM | Potency [3] 11.8 µM

C[C@H](NCc1ccc2c(c1)nc(NC(=O)c1ccc(-c3cn[nH]c3)s1)n2CCc1ccccc1)C(C)(C)C
active: Potency [1] 9.35 µM | Potency [8] 0.469 µM | Potency [9] 0.0743 µM

CC(C=CC=C(C)C=CC1=C(C)CCCC1(C)C)=CC=CC=C(C)C=CC=C(C)C=CC1=C(C)CCCC1(C)C
inactive: Potency [1] | Potency [7] | Potency [3] | Potency [9]

CN(C)CCOc1ccc(-c2nc(-c3ccc4c(c3)CCC4=NO)c(-c3ccncc3)[nH]2)cc1
active: Potency [4] 18.7 µM
inconclusive: Potency [5] 20.9 µM [cytotoxic, single point] | Potency [2] 23.5 µM [cytotoxic, partial curve, poor fit] | Potency [6] 18.7 µM [cytotoxic, partial curve, poor fit] | Potency [7] 33.2 µM [cytotoxic, single point] | Potency [8] 37.2 µM [cytotoxic, single point] | Potency [3] 33.2 µM [cytotoxic, single point] | Potency [9] 37.2 µM [cytotoxic, single point]

NC(=O)Nc1sc(-c2ccc(F)cc2)cc1C(N)=O
active: Potency [3] 1.32 µM | Potency [9] 14.8 µM
inactive: activity (max response) [11] -22.4%
inconclusive: Potency [4] 3.32 µM [cytotoxic, full curve] | Potency [5] 6.62 µM [cytotoxic, full curve] | Potency [2] 18.7 µM [cytotoxic, partial curve] | Potency [6] 18.7 µM [cytotoxic, partial curve] | Potency [7] 16.6 µM [cytotoxic, partial curve]

From PubChem BioAssay (NCATS)
